From article doi:10.1101/2024.02.14.580406
Results are given in words; binding and its absence hold for the method and conditions named. In cells and extracts the contact can be indirect. Some results given as binding are weak or reduced against the parent protein; the word gives no strength. For some assays here: Sequences can lack the tags named with a protein.

Protein sequences, listed by entry. Tags and fused reporters are not part of them.
UniProt Q9H792: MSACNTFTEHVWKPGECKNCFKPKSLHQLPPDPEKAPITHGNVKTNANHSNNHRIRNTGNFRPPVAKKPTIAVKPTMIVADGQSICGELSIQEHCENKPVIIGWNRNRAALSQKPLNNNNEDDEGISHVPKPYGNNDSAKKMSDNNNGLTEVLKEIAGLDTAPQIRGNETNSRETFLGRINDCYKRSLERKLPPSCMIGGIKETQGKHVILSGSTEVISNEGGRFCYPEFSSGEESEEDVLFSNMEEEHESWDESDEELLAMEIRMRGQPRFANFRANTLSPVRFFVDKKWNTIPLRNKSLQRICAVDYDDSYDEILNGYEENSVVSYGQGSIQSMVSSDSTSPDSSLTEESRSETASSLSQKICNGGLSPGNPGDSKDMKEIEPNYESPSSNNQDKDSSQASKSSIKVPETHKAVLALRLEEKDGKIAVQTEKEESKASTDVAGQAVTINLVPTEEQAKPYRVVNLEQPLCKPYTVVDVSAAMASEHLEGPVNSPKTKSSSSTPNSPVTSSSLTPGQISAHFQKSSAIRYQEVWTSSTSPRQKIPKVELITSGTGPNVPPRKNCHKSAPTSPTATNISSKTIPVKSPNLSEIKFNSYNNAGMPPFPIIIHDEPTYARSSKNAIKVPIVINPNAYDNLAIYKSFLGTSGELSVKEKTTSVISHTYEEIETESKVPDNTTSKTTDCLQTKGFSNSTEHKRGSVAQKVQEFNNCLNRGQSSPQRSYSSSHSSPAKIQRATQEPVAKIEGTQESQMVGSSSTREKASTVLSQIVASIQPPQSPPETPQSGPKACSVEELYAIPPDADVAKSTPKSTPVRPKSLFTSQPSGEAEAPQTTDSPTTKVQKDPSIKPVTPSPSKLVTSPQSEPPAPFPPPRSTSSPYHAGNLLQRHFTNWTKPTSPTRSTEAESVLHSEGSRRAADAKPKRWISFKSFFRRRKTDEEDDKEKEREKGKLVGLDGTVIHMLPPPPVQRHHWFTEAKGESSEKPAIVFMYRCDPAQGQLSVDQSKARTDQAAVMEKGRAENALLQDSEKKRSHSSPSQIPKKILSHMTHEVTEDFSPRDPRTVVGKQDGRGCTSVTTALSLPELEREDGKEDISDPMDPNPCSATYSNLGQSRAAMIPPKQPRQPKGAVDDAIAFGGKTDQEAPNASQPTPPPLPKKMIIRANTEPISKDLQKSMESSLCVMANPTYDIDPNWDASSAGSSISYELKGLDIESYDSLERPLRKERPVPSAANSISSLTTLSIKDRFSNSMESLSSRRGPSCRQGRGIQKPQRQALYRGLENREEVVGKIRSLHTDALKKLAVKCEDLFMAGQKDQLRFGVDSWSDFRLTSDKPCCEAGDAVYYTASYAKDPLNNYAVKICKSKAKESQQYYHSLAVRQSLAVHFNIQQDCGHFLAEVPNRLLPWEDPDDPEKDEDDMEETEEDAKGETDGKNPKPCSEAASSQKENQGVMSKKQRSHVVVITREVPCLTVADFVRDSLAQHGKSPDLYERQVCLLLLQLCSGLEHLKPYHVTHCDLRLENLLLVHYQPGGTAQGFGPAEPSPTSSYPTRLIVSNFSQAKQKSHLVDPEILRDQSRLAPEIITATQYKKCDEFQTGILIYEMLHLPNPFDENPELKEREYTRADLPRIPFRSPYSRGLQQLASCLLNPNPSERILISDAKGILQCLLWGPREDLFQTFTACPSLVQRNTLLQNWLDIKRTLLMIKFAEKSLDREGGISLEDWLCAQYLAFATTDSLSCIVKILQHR

T1: V1- or V2-labeled fusion of PEAK2 (UniProt Q86YV5)
T1 sequence: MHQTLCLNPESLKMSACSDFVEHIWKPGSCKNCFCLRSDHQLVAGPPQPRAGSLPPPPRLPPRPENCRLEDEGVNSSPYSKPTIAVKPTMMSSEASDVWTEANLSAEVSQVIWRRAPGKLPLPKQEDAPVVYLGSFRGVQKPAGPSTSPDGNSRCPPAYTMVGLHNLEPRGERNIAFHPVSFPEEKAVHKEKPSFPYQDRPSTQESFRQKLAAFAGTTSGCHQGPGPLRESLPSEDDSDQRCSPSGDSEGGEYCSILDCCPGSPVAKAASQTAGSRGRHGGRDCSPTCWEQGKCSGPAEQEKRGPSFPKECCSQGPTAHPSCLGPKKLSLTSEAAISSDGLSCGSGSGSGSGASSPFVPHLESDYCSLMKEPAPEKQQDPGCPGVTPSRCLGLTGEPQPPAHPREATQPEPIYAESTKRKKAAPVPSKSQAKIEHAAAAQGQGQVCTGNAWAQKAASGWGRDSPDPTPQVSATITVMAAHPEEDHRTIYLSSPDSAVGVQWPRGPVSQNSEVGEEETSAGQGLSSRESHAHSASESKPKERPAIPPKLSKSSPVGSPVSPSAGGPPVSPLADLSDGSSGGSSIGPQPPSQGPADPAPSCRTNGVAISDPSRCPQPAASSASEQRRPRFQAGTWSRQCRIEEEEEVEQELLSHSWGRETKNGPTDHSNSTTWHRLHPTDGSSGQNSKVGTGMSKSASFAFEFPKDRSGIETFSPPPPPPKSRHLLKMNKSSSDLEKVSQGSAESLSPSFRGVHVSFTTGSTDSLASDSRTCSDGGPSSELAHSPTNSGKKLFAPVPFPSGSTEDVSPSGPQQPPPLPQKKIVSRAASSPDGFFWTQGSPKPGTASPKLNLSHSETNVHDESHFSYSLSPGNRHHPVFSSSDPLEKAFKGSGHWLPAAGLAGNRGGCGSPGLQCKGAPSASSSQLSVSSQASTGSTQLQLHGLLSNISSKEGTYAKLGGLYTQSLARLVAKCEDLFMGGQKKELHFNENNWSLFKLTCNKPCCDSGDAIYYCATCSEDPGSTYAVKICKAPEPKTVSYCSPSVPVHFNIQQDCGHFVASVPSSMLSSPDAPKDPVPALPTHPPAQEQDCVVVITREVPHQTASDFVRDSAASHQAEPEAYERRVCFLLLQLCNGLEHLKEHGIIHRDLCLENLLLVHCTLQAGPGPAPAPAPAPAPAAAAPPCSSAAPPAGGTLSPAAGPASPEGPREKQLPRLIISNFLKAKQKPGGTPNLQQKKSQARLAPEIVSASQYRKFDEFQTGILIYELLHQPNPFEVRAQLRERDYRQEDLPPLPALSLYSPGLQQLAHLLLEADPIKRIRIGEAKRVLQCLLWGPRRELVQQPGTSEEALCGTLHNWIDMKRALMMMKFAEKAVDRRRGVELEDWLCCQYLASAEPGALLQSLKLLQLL


What was measured:
[1] = target: T1, V1- or V2-labeled fusion of PEAK2; test: split reporter
[2] = target: Flag-tagged PEAK1, wildtype (human) (UniProt Q9H792); test: co-IP

| binding [1] | binding [2] | Binder |
| --- | --- | --- |
| binds |  | V1- or V2-labeled fusion of PEAK2 (protein, UniProt Q86YV5 1-1406) MHQTLCLNPESLKMSACSDFVEHIWKPGSCKNCFCLRSDHQLVAGPPQPRAGSLPPPPRLPPRPENCRLEDEGVNSSPYSKPTIAVKPTMMSSEASDVWTEANLSAEVSQVIWRRAPGKLPLPKQEDAPVVYLGSFRGVQKPAGPSTSPDGNSRCPPAYTMVGLHNLEPRGERNIAFHPVSFPEEKAVHKEKPSFPYQDRPSTQESFRQKLAAFAGTTSGCHQGPGPLRESLPSEDDSDQRCSPSGDSEGGEYCSILDCCPGSPVAKAASQTAGSRGRHGGRDCSPTCWEQGKCSGPAEQEKRGPSFPKECCSQGPTAHPSCLGPKKLSLTSEAAISSDGLSCGSGSGSGSGASSPFVPHLESDYCSLMKEPAPEKQQDPGCPGVTPSRCLGLTGEPQPPAHPREATQPEPIYAESTKRKKAAPVPSKSQAKIEHAAAAQGQGQVCTGNAWAQKAASGWGRDSPDPTPQVSATITVMAAHPEEDHRTIYLSSPDSAVGVQWPRGPVSQNSEVGEEETSAGQGLSSRESHAHSASESKPKERPAIPPKLSKSSPVGSPVSPSAGGPPVSPLADLSDGSSGGSSIGPQPPSQGPADPAPSCRTNGVAISDPSRCPQPAASSASEQRRPRFQAGTWSRQCRIEEEEEVEQELLSHSWGRETKNGPTDHSNSTTWHRLHPTDGSSGQNSKVGTGMSKSASFAFEFPKDRSGIETFSPPPPPPKSRHLLKMNKSSSDLEKVSQGSAESLSPSFRGVHVSFTTGSTDSLASDSRTCSDGGPSSELAHSPTNSGKKLFAPVPFPSGSTEDVSPSGPQQPPPLPQKKIVSRAASSPDGFFWTQGSPKPGTASPKLNLSHSETNVHDESHFSYSLSPGNRHHPVFSSSDPLEKAFKGSGHWLPAAGLAGNRGGCGSPGLQCKGAPSASSSQLSVSSQASTGSTQLQLHGLLSNISSKEGTYAKLGGLYTQSLARLVAKCEDLFMGGQKKELHFNENNWSLFKLTCNKPCCDSGDAIYYCATCSEDPGSTYAVKICKAPEPKTVSYCSPSVPVHFNIQQDCGHFVASVPSSMLSSPDAPKDPVPALPTHPPAQEQDCVVVITREVPHQTASDFVRDSAASHQAEPEAYERRVCFLLLQLCNGLEHLKEHGIIHRDLCLENLLLVHCTLQAGPGPAPAPAPAPAPAAAAPPCSSAAPPAGGTLSPAAGPASPEGPREKQLPRLIISNFLKAKQKPGGTPNLQQKKSQARLAPEIVSASQYRKFDEFQTGILIYELLHQPNPFEVRAQLRERDYRQEDLPPLPALSLYSPGLQQLAHLLLEADPIKRIRIGEAKRVLQCLLWGPRRELVQQPGTSEEALCGTLHNWIDMKRALMMMKFAEKAVDRRRGVELEDWLCCQYLASAEPGALLQSLKLLQLL |
|  | binds | endogenous PEAK2 (protein, UniProt Q86YV5 1-1406) MHQTLCLNPESLKMSACSDFVEHIWKPGSCKNCFCLRSDHQLVAGPPQPRAGSLPPPPRLPPRPENCRLEDEGVNSSPYSKPTIAVKPTMMSSEASDVWTEANLSAEVSQVIWRRAPGKLPLPKQEDAPVVYLGSFRGVQKPAGPSTSPDGNSRCPPAYTMVGLHNLEPRGERNIAFHPVSFPEEKAVHKEKPSFPYQDRPSTQESFRQKLAAFAGTTSGCHQGPGPLRESLPSEDDSDQRCSPSGDSEGGEYCSILDCCPGSPVAKAASQTAGSRGRHGGRDCSPTCWEQGKCSGPAEQEKRGPSFPKECCSQGPTAHPSCLGPKKLSLTSEAAISSDGLSCGSGSGSGSGASSPFVPHLESDYCSLMKEPAPEKQQDPGCPGVTPSRCLGLTGEPQPPAHPREATQPEPIYAESTKRKKAAPVPSKSQAKIEHAAAAQGQGQVCTGNAWAQKAASGWGRDSPDPTPQVSATITVMAAHPEEDHRTIYLSSPDSAVGVQWPRGPVSQNSEVGEEETSAGQGLSSRESHAHSASESKPKERPAIPPKLSKSSPVGSPVSPSAGGPPVSPLADLSDGSSGGSSIGPQPPSQGPADPAPSCRTNGVAISDPSRCPQPAASSASEQRRPRFQAGTWSRQCRIEEEEEVEQELLSHSWGRETKNGPTDHSNSTTWHRLHPTDGSSGQNSKVGTGMSKSASFAFEFPKDRSGIETFSPPPPPPKSRHLLKMNKSSSDLEKVSQGSAESLSPSFRGVHVSFTTGSTDSLASDSRTCSDGGPSSELAHSPTNSGKKLFAPVPFPSGSTEDVSPSGPQQPPPLPQKKIVSRAASSPDGFFWTQGSPKPGTASPKLNLSHSETNVHDESHFSYSLSPGNRHHPVFSSSDPLEKAFKGSGHWLPAAGLAGNRGGCGSPGLQCKGAPSASSSQLSVSSQASTGSTQLQLHGLLSNISSKEGTYAKLGGLYTQSLARLVAKCEDLFMGGQKKELHFNENNWSLFKLTCNKPCCDSGDAIYYCATCSEDPGSTYAVKICKAPEPKTVSYCSPSVPVHFNIQQDCGHFVASVPSSMLSSPDAPKDPVPALPTHPPAQEQDCVVVITREVPHQTASDFVRDSAASHQAEPEAYERRVCFLLLQLCNGLEHLKEHGIIHRDLCLENLLLVHCTLQAGPGPAPAPAPAPAPAAAAPPCSSAAPPAGGTLSPAAGPASPEGPREKQLPRLIISNFLKAKQKPGGTPNLQQKKSQARLAPEIVSASQYRKFDEFQTGILIYELLHQPNPFEVRAQLRERDYRQEDLPPLPALSLYSPGLQQLAHLLLEADPIKRIRIGEAKRVLQCLLWGPRRELVQQPGTSEEALCGTLHNWIDMKRALMMMKFAEKAVDRRRGVELEDWLCCQYLASAEPGALLQSLKLLQLL |
